From PubChem BioAssay AID540256 (National Center for Advancing Translational Sciences (NCATS), 2011)
In all, about 300,000 compounds went through this assay and about 3,700 (1.2%) were called active. The shares of active, inactive and inconclusive entries below differ from those in the screen. Calls come from the whole dose curve; tested in HEK293 cells. Potencies of inconclusive entries are doubtful fits and often do not repeat.

Test: qHTS for Inhibitors of binding or entry into cells for Lassa Virus; note: nearly all actives have a fitted effect of over 50% in size
Conditions: Lassa virus pseudotype entry inhibition, cell reporter; activity change, negative = inhibition: at 37.9 µM (top of the series) unless noted
% is set by controls: 0 for no effect and ±100 for the full control effect; potency is the fitted concentration of half-maximal effect.

Structure (SMILES)	Potency	activity change, negative = inhibition
O=C(COc1ccccc1[N+](=O)[O-])N/N=C/C=C/c1ccco1	inconclusive: 1.41 µM [activator, partial curve]	–
Cc1ccc(/C(=N/Nc2nc3ccccc3s2)C2=C(O)c3ccccc3C2=O)cc1	–	inactive: -23.8%
O=C(C(=O)N1CCCCC1)c1c(-c2ccccc2)[nH]c2ccccc12	–	inactive: -17% [at 46.1 µM]
CCn1c2ccccc2c2cc(/C=N/NC(=O)c3ccccc3C)ccc21	inconclusive: 6.31 µM [inhibitor, full curve, poor fit]	–
O=C(CCCN1C(=O)S/C(=C\c2ccccc2)C1=O)NNC(=O)c1ccccc1O	inconclusive: 3.98 µM [inhibitor, full curve, poor fit]	–
S=c1[nH]nc(-c2ccco2)n1-c1ccccc1Cl	inconclusive: 14.1 µM [activator, single point]	–
Cc1ccc(S(=O)(=O)N2CCN(C(=O)c3ccco3)CC2)cc1	–	inactive: 3.16%
Cc1sc(NC(=O)Cc2ccc3c(c2)OCO3)nc1-c1ccc2c(c1)CCN2C(=O)c1cccc(F)c1	–	inactive: 0.709%
O=C(N/N=C/c1ccc2cccnc2c1)c1nc2ccccc2c(=O)[nH]1	inconclusive: 35.5 µM [activator, single point]	–
Cc1ccc2oc(NC(=O)N3CCOCC3)cc(=O)c2c1	inconclusive: 0.73 µM [inhibitor, full curve, poor fit]	–
Cc1cccc(Cc2cnc(N3C(=N)SC(C)C3=O)s2)c1 (stereo not drawn)	–	inactive: -15.2%
COC(=O)CCCC1=CC2=CC(=O)C(C)(OC(=O)c3cccs3)C(=O)C2=CN1C1CCCCC1 (stereo not drawn)	inconclusive: 0.75 µM [activator, single point]	–
CC1CCCC(C)N1C(=O)CSc1nc2ccccc2s1 (stereo not drawn)	inconclusive: 5.8 µM [activator, partial curve, poor fit]	–
CCCCN(C(=O)CCC(=O)Nc1cc(C)on1)C(C(=O)NC1CCCC1)c1ccc(F)cc1 (stereo not drawn)	inconclusive: 22.4 µM [inhibitor, partial curve, poor fit]	–
COc1ccc(C(=O)NCCSC2CCCCC2)cc1	inconclusive: 2.59 µM [activator, full curve, poor fit]	–
Cc1nc2nc[nH]n2c(=O)c1NS(=O)(=O)c1ccc(Br)cc1	–	inactive: -3.48% [at 46.1 µM]
CN(C)/C=N/c1nc2nccc(-c3cccs3)n2n1	–	inactive: 0.356%
O=C(Nc1cccc(Cl)c1)c1ccc(-n2cncn2)c([N+](=O)[O-])c1	–	inactive: -20.2%
CCOc1ccc(NC(=O)CSc2nc3ccccc3c(=O)n2CCCC(=O)NCCCN2CCCC2=O)cc1	inconclusive: 35.5 µM [inhibitor, single point]	–
CCOc1ccc(NC(=O)CCSc2ccc3ccccc3n2)cc1	inconclusive: 7.08 µM [activator, full curve]	–
CC(C)(C)C(=O)OCC1OC(n2cnc(C(N)=O)n2)C(O)C1O (stereo not drawn)	inconclusive: 18.3 µM [activator, single point]	–
Cc1ccccc1S(=O)(=O)Cc1ccc(C(=O)NCCN(CC(C)C)CC(C)C)o1	inconclusive: 1.78 µM [inhibitor, partial curve, poor fit]	–

Shown as comma-separated lines: entries from further up
Structure (SMILES),Potency,"activity change, negative = inhibition"
O=C(COc1ccccc1[N+](=O)[O-])N/N=C/C=C/c1ccco1,"inconclusive: 1.41 µM [activator, partial curve]",–
CCn1c2ccccc2c2cc(/C=N/NC(=O)c3ccccc3C)ccc21,"inconclusive: 6.31 µM [inhibitor, full curve, poor fit]",–
S=c1[nH]nc(-c2ccco2)n1-c1ccccc1Cl,"inconclusive: 14.1 µM [activator, single point]",–
Cc1sc(NC(=O)Cc2ccc3c(c2)OCO3)nc1-c1ccc2c(c1)CCN2C(=O)c1cccc(F)c1,–,inactive: 0.709%
O=C(N/N=C/c1ccc2cccnc2c1)c1nc2ccccc2c(=O)[nH]1,"inconclusive: 35.5 µM [activator, single point]",–
Cc1ccc2oc(NC(=O)N3CCOCC3)cc(=O)c2c1,"inconclusive: 0.73 µM [inhibitor, full curve, poor fit]",–
O=C(Nc1cccc(Cl)c1)c1ccc(-n2cncn2)c([N+](=O)[O-])c1,–,inactive: -20.2%
Cc1ccccc1S(=O)(=O)Cc1ccc(C(=O)NCCN(CC(C)C)CC(C)C)o1,"inconclusive: 1.78 µM [inhibitor, partial curve, poor fit]",–

Further compounds follow:

Structure (SMILES)	Potency	activity change, negative = inhibition
N=c1c(S(=O)(=O)c2ccc(Br)cc2)cc2c(=O)n3ccccc3nc2n1Cc1ccccc1	inconclusive: 35.5 µM [activator, single point]	–
CCCCC(=O)Nc1ccc(C(=O)Nc2ccc(OC)cc2[N+](=O)[O-])cc1	–	inactive: -5.67%
CCOc1ccc(C(C)=O)cc1CC(C(N)=O)C(N)=O	–	inactive: 2.23%
Cc1cccc(N2CCN(C(=O)c3cnn(-c4ccccc4)c3C3CCN(C(=O)OC(C)(C)C)CC3)CC2)c1C	inconclusive: 1.26 µM [inhibitor, partial curve, poor fit]	–
CCOC(=O)c1c(NC(=O)C(C)Sc2cn(CCNC(=O)c3ccc(OCC)cc3)c3ccccc23)sc2c1CCC2 (stereo not drawn)	–	inactive: -1.21% [at 46.1 µM]
COc1ccc(OC)c(CN2CCN(c3ccc(S(=O)(=O)N4CCCC4)cn3)CC2)c1	inconclusive: 14.1 µM [inhibitor, single point]	–
C=CCn1c(N2CCCCCC2)nc2c1c(=O)[nH]c(=O)n2C	–	inactive: -17.5%
O=C1CSC(c2cn(-c3ccccc3)nc2-c2cc3ccccc3oc2=O)N1Cc1ccccc1 (stereo not drawn)	active: 11.2 µM	–
O=C(Nc1ccc(Cl)cc1C(=O)NCC1CCCO1)c1ccco1 (stereo not drawn)	–	inactive: 8.63%
COc1cccc(CNC(=O)c2ccc3c(c2)sc2nc(-c4cccc(OC)c4)cn23)c1	–	inactive: -0.598% [at 46.1 µM]
COCCn1ccc2c(OCC(=O)Nc3cccc(C(F)(F)F)c3)cccc2c1=O	–	inactive: -28.1% [at 46.1 µM]
COc1cc(NC(=O)C2CCCCC2)c(OC)cc1NC(=O)c1ccccc1	inconclusive: 10 µM [inhibitor, partial curve, poor fit]	–
CC(C)COc1ccc(C(=O)N(CC(=O)Nc2ccccc2C(F)(F)F)Cc2ccco2)cc1	inconclusive: 12.6 µM [inhibitor, partial curve, poor fit]	–
CCn1c(SCC(=O)Nc2cc(C(C)(C)C)nn2-c2ccccc2)nnc1-c1cccs1	inconclusive: 10 µM [inhibitor, partial curve]	–
CCOC(=O)/C(=C\C=C1/Sc2ccccc2N1CC)C(C)=O	active: 2.82 µM	–
O/N=C(/c1ccc(F)cc1)C1CC1c1c(F)cccc1Cl (stereo not drawn)	inconclusive: 3.55 µM [inhibitor, partial curve, poor fit]	–
COc1ccc(CCNC(=O)C2CCN(S(=O)(=O)c3ccc(Cl)cc3)CC2)cc1OC	inconclusive: 29.1 µM [inhibitor, single point]	–
CCOC(=O)C1(CCCc2ccccc2)CCN(C(=O)c2ccoc2)CC1	inconclusive: 10 µM [inhibitor, partial curve, poor fit]	–
C=C(C)CCN1C(=O)NC(c2ccccc2)C(C(C)=O)=C1C (stereo not drawn)	inconclusive: 2.66 µM [activator, single point]	–
Cc1onc(-c2ccccc2)c1C(=O)NNC(=S)NC(=O)c1ccc(F)cc1	inconclusive: 35.5 µM [inhibitor, single point]	–
O=C(Nc1cccc(O)c1)C1CC(c2cccc(Br)c2)=NO1 (stereo not drawn)	inconclusive: 2.82 µM [inhibitor, partial curve, poor fit]	–
